Assay results from paper PMC7337498.

Chains of the proteins cited; added tags and fusions are not shown.
UniProt Q07157: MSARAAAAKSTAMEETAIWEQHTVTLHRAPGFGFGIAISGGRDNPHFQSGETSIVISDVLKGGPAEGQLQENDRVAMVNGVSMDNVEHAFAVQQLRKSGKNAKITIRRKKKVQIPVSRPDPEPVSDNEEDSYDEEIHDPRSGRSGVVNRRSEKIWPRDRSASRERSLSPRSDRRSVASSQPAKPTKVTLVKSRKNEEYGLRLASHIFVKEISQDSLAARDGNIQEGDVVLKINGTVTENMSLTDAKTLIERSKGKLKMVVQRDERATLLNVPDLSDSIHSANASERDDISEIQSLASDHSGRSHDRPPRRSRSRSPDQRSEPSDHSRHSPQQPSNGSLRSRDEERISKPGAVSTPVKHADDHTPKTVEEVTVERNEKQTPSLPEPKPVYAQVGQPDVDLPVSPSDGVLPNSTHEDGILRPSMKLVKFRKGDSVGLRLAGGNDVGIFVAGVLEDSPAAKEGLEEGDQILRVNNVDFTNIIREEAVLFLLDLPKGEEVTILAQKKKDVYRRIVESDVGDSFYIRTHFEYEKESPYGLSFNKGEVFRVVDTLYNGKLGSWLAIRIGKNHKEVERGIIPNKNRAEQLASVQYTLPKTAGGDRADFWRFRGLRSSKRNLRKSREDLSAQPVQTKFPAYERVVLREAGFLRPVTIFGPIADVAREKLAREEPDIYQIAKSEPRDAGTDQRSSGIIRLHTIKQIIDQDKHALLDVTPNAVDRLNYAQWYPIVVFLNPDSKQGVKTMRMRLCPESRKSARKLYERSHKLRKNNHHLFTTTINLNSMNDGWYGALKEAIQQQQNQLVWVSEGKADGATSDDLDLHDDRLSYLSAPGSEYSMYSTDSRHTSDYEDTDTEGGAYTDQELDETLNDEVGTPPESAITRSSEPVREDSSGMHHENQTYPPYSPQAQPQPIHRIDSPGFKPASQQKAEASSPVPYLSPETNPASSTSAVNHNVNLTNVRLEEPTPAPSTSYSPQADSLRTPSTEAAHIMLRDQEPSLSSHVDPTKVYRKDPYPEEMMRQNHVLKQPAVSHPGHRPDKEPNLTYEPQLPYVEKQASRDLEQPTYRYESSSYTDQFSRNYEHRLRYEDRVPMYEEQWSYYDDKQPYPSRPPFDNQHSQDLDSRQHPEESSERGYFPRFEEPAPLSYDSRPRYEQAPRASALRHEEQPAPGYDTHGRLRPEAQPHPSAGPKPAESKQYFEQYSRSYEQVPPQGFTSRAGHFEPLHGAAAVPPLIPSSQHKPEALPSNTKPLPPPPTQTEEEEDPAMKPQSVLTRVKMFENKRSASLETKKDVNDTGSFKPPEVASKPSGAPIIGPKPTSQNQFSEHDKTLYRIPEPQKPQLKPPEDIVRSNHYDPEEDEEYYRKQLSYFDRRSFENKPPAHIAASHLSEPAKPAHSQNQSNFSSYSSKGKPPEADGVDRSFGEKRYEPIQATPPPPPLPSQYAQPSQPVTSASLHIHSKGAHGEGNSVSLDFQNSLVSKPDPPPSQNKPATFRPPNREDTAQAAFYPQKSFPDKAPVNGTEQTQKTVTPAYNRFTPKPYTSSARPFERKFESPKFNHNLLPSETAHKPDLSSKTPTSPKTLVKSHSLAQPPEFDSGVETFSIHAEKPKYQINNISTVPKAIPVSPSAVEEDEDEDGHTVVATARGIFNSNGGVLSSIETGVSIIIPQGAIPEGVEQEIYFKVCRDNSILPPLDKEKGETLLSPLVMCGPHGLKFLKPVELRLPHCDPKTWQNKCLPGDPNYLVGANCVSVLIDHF
UniProt O14950: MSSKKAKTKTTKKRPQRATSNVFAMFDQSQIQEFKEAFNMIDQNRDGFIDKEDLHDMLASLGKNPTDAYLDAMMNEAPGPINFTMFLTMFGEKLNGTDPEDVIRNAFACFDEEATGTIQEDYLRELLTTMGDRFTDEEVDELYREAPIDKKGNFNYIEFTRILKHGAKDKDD
UniProt P08590: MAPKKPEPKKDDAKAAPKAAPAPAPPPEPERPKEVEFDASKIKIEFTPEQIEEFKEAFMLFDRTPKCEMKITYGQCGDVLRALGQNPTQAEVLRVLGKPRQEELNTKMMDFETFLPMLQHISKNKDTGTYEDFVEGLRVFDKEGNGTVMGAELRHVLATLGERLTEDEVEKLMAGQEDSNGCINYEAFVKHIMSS
UniProt P60660: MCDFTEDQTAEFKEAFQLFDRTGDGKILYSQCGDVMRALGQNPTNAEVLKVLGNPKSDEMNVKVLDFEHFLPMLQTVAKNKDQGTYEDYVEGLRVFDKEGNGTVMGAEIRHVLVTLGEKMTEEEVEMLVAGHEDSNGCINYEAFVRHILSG
UniProt P21333: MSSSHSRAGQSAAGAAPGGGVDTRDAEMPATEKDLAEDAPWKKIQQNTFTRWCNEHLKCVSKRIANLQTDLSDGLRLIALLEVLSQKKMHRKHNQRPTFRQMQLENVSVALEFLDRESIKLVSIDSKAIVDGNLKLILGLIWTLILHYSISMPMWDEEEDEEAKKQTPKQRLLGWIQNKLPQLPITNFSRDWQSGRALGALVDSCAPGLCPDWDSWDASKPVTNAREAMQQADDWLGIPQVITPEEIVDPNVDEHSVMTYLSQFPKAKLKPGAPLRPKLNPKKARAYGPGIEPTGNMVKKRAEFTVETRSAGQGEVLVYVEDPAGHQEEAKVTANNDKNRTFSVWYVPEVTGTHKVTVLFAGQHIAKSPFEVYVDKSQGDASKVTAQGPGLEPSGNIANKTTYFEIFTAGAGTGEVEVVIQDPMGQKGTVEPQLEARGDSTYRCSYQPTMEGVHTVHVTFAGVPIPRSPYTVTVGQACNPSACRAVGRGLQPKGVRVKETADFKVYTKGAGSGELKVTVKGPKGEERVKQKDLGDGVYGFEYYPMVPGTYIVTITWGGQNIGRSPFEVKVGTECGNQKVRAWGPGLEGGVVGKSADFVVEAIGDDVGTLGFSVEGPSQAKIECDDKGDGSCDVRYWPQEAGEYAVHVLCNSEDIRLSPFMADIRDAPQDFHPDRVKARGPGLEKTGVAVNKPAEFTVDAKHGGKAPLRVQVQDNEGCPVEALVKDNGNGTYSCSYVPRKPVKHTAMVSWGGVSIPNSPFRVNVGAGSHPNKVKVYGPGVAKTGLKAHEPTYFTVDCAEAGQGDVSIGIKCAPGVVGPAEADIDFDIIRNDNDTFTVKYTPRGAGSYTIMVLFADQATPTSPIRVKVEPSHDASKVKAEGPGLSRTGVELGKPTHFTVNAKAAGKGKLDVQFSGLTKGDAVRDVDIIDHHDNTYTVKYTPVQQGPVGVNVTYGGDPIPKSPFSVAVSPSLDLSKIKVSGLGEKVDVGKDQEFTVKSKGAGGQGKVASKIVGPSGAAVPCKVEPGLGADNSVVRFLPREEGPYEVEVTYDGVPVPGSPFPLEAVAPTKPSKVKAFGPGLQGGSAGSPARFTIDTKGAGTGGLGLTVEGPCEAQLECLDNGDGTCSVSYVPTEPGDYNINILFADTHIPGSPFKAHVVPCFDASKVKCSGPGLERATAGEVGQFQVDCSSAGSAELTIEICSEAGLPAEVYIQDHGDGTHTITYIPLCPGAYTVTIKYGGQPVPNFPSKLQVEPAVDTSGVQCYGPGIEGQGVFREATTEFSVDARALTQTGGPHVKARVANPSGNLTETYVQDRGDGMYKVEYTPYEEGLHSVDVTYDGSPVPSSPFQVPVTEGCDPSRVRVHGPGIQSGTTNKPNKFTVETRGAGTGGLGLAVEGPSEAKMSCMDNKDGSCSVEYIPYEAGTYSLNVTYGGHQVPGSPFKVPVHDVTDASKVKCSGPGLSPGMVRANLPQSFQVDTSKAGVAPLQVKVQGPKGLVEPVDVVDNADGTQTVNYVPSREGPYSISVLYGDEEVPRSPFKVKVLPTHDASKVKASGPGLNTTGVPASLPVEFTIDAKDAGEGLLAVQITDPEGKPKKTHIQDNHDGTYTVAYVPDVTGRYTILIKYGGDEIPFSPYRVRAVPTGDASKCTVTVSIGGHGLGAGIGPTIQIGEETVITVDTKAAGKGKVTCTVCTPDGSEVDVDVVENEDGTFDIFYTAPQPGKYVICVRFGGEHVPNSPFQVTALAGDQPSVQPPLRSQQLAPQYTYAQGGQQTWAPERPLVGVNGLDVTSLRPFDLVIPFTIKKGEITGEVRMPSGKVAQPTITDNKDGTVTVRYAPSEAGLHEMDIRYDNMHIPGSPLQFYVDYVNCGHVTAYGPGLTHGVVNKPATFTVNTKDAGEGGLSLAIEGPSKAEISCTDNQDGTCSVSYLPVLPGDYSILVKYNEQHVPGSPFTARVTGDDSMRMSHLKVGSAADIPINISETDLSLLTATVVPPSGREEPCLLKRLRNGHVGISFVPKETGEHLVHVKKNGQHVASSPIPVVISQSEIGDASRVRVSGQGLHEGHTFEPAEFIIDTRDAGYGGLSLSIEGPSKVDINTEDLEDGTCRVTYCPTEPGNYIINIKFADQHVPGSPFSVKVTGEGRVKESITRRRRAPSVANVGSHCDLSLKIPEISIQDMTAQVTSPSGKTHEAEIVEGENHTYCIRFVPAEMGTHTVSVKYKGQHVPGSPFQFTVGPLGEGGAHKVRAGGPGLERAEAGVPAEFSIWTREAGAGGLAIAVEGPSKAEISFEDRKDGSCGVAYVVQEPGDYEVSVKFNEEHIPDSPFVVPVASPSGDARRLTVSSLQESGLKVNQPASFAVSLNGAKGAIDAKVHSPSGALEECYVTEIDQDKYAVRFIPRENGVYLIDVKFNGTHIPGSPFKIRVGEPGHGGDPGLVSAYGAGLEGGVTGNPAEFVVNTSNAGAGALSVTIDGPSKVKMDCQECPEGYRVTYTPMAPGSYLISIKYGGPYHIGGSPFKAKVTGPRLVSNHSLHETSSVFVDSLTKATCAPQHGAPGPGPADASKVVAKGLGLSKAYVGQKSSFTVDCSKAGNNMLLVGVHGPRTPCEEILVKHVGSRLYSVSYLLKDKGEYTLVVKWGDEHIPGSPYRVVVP
UniProt P14649: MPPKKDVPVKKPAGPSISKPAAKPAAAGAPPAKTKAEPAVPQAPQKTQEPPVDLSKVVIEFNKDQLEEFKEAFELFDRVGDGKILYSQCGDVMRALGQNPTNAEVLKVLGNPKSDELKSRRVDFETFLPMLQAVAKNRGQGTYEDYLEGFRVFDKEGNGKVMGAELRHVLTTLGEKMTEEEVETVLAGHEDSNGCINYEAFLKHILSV
UniProt Q9UHB6: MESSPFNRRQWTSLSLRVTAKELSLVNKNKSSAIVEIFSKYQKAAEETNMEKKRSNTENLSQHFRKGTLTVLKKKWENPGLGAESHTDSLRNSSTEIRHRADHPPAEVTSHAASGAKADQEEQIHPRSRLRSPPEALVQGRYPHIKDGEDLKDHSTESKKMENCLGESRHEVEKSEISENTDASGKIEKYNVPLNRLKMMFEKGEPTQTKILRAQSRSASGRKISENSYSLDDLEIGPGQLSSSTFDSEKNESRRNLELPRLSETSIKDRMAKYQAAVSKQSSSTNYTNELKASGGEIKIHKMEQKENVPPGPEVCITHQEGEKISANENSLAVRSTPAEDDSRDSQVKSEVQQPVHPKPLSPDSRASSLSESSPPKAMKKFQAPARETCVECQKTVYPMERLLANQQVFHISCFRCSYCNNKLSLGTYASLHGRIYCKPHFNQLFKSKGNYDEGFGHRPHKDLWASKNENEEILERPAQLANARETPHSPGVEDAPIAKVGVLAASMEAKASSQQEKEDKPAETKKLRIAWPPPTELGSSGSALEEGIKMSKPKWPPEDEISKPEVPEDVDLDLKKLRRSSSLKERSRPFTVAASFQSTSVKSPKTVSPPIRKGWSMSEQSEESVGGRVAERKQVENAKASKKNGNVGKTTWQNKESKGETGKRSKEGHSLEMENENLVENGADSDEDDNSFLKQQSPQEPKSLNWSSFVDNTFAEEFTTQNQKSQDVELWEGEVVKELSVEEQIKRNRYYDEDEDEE

T1: FLAG-BirA*-LUZP1 (human) (UniProt Q86V48)
T1 sequence: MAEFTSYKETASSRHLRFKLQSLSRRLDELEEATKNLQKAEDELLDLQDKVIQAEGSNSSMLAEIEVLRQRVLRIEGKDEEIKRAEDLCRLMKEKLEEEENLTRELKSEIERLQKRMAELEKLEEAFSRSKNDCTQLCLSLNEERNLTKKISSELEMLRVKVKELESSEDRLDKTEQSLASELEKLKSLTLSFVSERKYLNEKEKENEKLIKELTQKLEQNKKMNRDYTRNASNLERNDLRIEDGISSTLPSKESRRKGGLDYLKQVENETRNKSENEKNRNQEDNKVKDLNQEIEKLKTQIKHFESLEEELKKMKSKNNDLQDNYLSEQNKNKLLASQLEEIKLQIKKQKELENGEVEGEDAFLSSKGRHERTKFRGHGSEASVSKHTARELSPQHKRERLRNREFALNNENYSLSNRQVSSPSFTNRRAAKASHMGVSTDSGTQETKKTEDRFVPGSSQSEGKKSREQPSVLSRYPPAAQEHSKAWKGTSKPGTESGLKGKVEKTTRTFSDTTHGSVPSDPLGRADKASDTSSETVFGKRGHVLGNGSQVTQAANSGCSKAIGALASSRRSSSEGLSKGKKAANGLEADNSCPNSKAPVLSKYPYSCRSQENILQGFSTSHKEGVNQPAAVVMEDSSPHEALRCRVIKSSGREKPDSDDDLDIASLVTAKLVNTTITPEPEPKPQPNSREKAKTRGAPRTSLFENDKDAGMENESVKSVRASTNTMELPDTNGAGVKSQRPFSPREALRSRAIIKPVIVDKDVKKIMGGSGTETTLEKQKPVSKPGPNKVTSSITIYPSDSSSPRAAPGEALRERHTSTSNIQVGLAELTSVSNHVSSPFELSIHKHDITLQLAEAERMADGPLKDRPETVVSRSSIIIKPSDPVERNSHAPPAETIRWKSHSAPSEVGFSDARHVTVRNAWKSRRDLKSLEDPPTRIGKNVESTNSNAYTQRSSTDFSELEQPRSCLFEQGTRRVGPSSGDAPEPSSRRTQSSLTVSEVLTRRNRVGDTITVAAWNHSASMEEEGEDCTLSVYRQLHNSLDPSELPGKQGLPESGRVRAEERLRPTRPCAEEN

B1: SORBS1/CAP (protein, UniProt Q9BX66 1-1292)
chain: MSSECDGGSKAVMNGLAPGSNGQDKATADPLRARSISAVKIIPVKTVKNASGLVLPTDMDLTKICTGKGAVTLRASSSYRETPSSSPASPQETRQHESKPGLEPEPSSADEWRLSSSADANGNAQPSSLAAKGYRSVHPNLPSDKSQDATSSSAAQPEVIVVPLYLVNTDRGQEGTARPPTPLGPLGCVPTIPATASAASPLTFPTLDDFIPPHLQRWPHHSQPARASGSFAPISQTPPSFSPPPPLVPPAPEDLRRVSEPDLTGAVSSTDSSPLLNEVSSSLIGTDSQAFPSVSKPSSAYPSTTIVNPTIVLLQHNREQQKRLSSLSDPVSERRVGEQDSAPTQEKPTSPGKAIEKRAKDDSRRVVKSTQDLSDVSMDEVGIPLRNTERSKDWYKTMFKQIHKLNRDTPEENPYFPTYKFPELPEIQQTSEEDNPYTPTYQFPASTPSPKSEDDDSDLYSPRYSFSEDTKSPLSVPRSKSEMSYIDGEKVVKRSATLPLPARSSSLKSSSERNDWEPPDKKVDTRKYRAEPKSIYEYQPGKSSVLTNEKMSRDISPEEIDLKNEPWYKFFSELEFGKPPPKKIWDYTPGDCSILPREDRKTNLDKDLSLCQTELEADLEKMETLNKAPSANVPQSSAISPTPEISSETPGYIYSSNFHAVKRESDGAPGDLTSLENERQIYKSVLEGGDIPLQGLSGLKRPSSSASTKDSESPRHFIPADYLESTEEFIRRRHDDKEKLLADQRRLKREQEEADIAARRHTGVIPTHHQFITNERFGDLLNIDDTAKRKSGSEMRPARAKFDFKAQTLKELPLQKGDIVYIYKQIDQNWYEGEHHGRVGIFPRTYIELLPPAEKAQPKKLTPVQVLEYGEAIAKFNFNGDTQVEMSFRKGERITLLRQVDENWYEGRIPGTSRQGIFPITYVDVIKRPLVKNPVDYMDLPFSSSPSRSATASPQFSSHSKLITPAPSSLPHSRRALSPEMHAVTSEWISLTVGVPGRRSLALTPPLPPLPEASIYNTDHLALSPRASPSLSLSLPHLSWSDRPTPRSVASPLALPSPHKTYSLAPTSQASLHMNGDGGVHTPSSGIHQDSFLQLPLGSSDSVISQLSDAFSSQSKRQPWREESGQYERKAERGAGERGPGGPKISKKSCLKPSDVVRCLSTEQRLSDLNTPEESRPGKPLGSAFPGSEAEQTERHRGGEQAGRKAARRGGSQQPQAQQRRVTPDRSQTSQDLFSYQALYSYIPQNDDELELRDGDIVDVMEKCDDGWFVGTSRRTKQFGTFPGNYVKPLYL
B2: MYL12A (protein, UniProt P19105 1-171)
chain: MSSKRTKTKTKKRPQRATSNVFAMFDQSQIQEFKEAFNMIDQNRDGFIDKEDLHDMLASLGKNPTDEYLDAMMNEAPGPINFTMFLTMFGEKLNGTDPEDVIRNAFACFDEEATGTIQEDYLRELLTTMGDRFTDEEVDELYREAPIDKKGNFNYIEFTRILKHGAKDKDD
B3: SEPT2 (protein, UniProt Q15019 1-361)
chain: MSKQQPTQFINPETPGYVGFANLPNQVHRKSVKKGFEFTLMVVGESGLGKSTLINSLFLTDLYPERVIPGAAEKIERTVQIEASTVEIEERGVKLRLTVVDTPGYGDAINCRDCFKTIISYIDEQFERYLHDESGLNRRHIIDNRVHCCFYFISPFGHGLKPLDVAFMKAIHNKVNIVPVIAKADTLTLKERERLKKRILDEIEEHNIKIYHLPDAESDEDEDFKEQTRLLKASIPFSVVGSNQLIEAKGKKVRGRLYPWGVVEVENPEHNDFLKLRTMLITHMQDLQEVTQDLHYENFRSERLKRGGRKVENEDMNKDQILLEKEAELRRMQEMIARMQAQMQMQMQGGDGDGGALGHHV

molecular target: T1, FLAG-BirA*-LUZP1 (human); assay: proximity labelling; BioID: FLAG-BirA*-LUZP1 in Flp-In T-REx HEK293, tetracycline and 50 µM biotin for 24 h, cycling cells and cells serum starved for 48 h before biotin; streptavidin Sepharose capture, MS, SAINT against FLAG-BirA* alone, BFDR ≤0.01

binding, binds:
TJP1 (from UniProt Q07157 1-1748)
MYL12B (from UniProt O14950 1-172)
MYL3 (from UniProt P08590 1-195)
FLNB (from UniProt O75369 1-2602)
MYL6 (from UniProt P60660 1-151)
FLNA (from UniProt P21333 1-2647)
PCM1 (from UniProt Q15154 1-2024)
MYL6B (from UniProt P14649 1-208)
EPLIN/LIMA1 (endogenous, HEK293) (from UniProt Q9UHB6 1-759)
B1
B2
B3

These are yes or no findings as the source states them, for the method shown. In cells and extracts the contact can be indirect. These calls come from enrichment with a bait or labelling near it, and not all partners need be listed. Where a sequence is shown, tags or fusion partners need not be part of it.
